Results taken from paper PMC10158027.
No constants are given. Whether binding was seen depends on the method and setting. Binding seen in cells or lysates may run through a third protein. Some binding calls cover weakened binding; strength is not graded here. For part of these data: Where a sequence is shown, tags or fusion partners need not be part of it.

Chains of the proteins cited; added tags and fusions are not shown.
UniProt Q86U44: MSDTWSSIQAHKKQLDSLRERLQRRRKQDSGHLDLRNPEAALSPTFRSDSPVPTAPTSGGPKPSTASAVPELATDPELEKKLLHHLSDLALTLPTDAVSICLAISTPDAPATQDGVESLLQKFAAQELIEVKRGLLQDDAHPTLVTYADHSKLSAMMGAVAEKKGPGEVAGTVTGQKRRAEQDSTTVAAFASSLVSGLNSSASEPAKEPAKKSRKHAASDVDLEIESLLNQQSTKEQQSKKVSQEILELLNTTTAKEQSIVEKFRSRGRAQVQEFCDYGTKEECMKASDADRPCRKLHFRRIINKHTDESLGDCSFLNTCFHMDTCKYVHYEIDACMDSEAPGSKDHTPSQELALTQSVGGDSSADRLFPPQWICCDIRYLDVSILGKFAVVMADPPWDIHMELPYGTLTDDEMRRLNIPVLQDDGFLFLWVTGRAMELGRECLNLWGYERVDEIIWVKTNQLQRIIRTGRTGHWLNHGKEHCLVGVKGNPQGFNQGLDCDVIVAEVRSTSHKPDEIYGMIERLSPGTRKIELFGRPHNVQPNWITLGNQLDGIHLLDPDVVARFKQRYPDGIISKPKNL

Columns and labels:
[1] = target: T1, USP13 (human (endogenous in OS cells)) (UniProt Q92995); assay: co-IP; lysates of OS cells immunoprecipitated with USP13 or METTL3 antibody, immunoblotted with METTL3 or USP13 antibody; endogenous proteins
T1 sequence: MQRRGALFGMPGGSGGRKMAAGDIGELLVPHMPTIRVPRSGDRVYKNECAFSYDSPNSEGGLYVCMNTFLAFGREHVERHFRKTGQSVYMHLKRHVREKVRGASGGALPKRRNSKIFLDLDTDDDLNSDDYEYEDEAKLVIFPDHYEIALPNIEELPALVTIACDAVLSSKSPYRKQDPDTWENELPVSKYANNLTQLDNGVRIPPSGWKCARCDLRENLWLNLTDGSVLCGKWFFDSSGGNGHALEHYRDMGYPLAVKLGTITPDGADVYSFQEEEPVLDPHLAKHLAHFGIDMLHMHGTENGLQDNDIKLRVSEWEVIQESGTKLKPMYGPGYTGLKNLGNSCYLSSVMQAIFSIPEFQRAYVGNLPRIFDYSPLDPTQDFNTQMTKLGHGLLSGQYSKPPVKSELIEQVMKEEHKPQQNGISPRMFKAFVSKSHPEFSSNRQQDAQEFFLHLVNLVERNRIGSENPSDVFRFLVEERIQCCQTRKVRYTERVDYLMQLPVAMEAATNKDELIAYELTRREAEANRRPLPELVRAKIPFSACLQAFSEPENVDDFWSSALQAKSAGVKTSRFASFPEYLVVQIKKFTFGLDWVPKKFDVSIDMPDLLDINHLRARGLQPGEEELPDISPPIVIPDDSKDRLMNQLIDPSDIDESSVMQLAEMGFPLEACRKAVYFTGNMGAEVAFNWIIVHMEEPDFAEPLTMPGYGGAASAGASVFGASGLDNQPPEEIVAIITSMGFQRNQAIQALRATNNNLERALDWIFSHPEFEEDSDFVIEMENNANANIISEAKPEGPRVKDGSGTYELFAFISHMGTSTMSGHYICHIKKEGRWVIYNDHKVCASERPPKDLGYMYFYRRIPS

Flag-tagged USP13 = target: T2, Flag-tagged USP13 (UniProt Q92995); assay: co-IP; HEK 293T cells co-transfected with Flag-USP13 and Myc-METTL3 (full length or deletion fragments); lysates immunoprecipitated with Flag or Myc antibody, immunoblotted with anti-Myc and anti-Flag
T2 sequence: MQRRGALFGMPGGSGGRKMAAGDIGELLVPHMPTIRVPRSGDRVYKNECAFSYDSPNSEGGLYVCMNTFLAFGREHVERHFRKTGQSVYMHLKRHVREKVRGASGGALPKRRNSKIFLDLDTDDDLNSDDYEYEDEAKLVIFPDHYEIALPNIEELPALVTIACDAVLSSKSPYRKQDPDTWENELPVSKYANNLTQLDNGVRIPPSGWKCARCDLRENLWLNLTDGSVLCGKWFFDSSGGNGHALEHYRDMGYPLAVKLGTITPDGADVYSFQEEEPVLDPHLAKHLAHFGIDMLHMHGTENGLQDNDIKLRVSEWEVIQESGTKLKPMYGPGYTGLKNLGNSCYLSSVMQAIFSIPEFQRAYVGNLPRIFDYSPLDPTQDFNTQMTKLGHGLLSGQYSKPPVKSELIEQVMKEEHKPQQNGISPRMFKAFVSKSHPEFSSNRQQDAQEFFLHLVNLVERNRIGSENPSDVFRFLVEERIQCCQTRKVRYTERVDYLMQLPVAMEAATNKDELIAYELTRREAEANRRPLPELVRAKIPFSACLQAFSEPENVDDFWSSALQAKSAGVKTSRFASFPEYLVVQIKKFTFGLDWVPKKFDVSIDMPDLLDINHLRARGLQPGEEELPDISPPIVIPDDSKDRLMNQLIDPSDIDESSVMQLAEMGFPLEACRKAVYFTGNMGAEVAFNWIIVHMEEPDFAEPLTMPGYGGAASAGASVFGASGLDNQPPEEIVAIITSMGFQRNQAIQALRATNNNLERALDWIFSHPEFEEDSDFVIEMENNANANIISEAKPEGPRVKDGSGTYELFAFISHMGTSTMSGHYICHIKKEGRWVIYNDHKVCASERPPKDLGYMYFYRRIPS

[2] = target: METTL3 (human (endogenous in OS cells)) (UniProt Q86U44); assay: co-IP; lysates of OS cells immunoprecipitated with USP13 or METTL3 antibody, immunoblotted with METTL3 or USP13 antibody; endogenous proteins

METTL3 (from UniProt Q86U44 1-580) (enzyme)
binding [1]: binds

Myc-tagged full-length (FL) METTL3 (from UniProt Q86U44 1-580) (enzyme)
binding (Flag-tagged USP13): binds

B1: USP13 (enzyme, UniProt Q92995 1-863)
chain: MQRRGALFGMPGGSGGRKMAAGDIGELLVPHMPTIRVPRSGDRVYKNECAFSYDSPNSEGGLYVCMNTFLAFGREHVERHFRKTGQSVYMHLKRHVREKVRGASGGALPKRRNSKIFLDLDTDDDLNSDDYEYEDEAKLVIFPDHYEIALPNIEELPALVTIACDAVLSSKSPYRKQDPDTWENELPVSKYANNLTQLDNGVRIPPSGWKCARCDLRENLWLNLTDGSVLCGKWFFDSSGGNGHALEHYRDMGYPLAVKLGTITPDGADVYSFQEEEPVLDPHLAKHLAHFGIDMLHMHGTENGLQDNDIKLRVSEWEVIQESGTKLKPMYGPGYTGLKNLGNSCYLSSVMQAIFSIPEFQRAYVGNLPRIFDYSPLDPTQDFNTQMTKLGHGLLSGQYSKPPVKSELIEQVMKEEHKPQQNGISPRMFKAFVSKSHPEFSSNRQQDAQEFFLHLVNLVERNRIGSENPSDVFRFLVEERIQCCQTRKVRYTERVDYLMQLPVAMEAATNKDELIAYELTRREAEANRRPLPELVRAKIPFSACLQAFSEPENVDDFWSSALQAKSAGVKTSRFASFPEYLVVQIKKFTFGLDWVPKKFDVSIDMPDLLDINHLRARGLQPGEEELPDISPPIVIPDDSKDRLMNQLIDPSDIDESSVMQLAEMGFPLEACRKAVYFTGNMGAEVAFNWIIVHMEEPDFAEPLTMPGYGGAASAGASVFGASGLDNQPPEEIVAIITSMGFQRNQAIQALRATNNNLERALDWIFSHPEFEEDSDFVIEMENNANANIISEAKPEGPRVKDGSGTYELFAFISHMGTSTMSGHYICHIKKEGRWVIYNDHKVCASERPPKDLGYMYFYRRIPS
binding [2]: binds
